Assay [1] deals with T1, endogenous USP21 (mouse (endogenous in E14)) (UniProt Q9QZL6).
T1 sequence: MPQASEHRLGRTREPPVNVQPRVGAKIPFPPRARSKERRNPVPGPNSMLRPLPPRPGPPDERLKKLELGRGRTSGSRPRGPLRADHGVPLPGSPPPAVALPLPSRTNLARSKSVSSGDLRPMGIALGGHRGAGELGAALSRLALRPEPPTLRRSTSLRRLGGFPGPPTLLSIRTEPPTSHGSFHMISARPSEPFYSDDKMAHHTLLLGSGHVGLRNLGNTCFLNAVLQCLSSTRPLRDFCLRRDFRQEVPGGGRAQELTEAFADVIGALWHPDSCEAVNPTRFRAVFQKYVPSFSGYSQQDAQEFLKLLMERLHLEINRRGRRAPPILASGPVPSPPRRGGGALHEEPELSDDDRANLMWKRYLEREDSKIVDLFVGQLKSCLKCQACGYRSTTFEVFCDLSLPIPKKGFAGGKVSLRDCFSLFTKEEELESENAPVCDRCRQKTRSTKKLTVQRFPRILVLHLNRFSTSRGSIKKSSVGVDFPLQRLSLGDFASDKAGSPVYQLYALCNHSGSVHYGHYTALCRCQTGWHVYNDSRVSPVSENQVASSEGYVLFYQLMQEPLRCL
Kind of assay: co-IP; endogenous proteins from E14 mESC lysate; IP with anti-Nanog or anti-USP21 (Abgent) antibody; western blot; in one panel cells treated with mFGF4 (25 ng/ml) with or without PD0325901 (1 uM) for 12 h.

Chains of the proteins cited; added tags and fusions are not shown.
UniProt P48432: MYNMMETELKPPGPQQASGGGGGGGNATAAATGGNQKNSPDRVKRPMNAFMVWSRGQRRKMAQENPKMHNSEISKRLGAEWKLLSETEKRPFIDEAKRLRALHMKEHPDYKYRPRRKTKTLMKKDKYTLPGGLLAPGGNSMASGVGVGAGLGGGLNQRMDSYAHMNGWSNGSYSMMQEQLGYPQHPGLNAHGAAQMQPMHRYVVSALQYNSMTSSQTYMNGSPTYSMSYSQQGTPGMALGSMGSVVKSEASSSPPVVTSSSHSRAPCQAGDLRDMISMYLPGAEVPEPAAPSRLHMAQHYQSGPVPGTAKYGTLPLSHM

Assay [2] concerns the target T2, HA-Nanog (mouse) (UniProt Q80Z64).
T2 sequence: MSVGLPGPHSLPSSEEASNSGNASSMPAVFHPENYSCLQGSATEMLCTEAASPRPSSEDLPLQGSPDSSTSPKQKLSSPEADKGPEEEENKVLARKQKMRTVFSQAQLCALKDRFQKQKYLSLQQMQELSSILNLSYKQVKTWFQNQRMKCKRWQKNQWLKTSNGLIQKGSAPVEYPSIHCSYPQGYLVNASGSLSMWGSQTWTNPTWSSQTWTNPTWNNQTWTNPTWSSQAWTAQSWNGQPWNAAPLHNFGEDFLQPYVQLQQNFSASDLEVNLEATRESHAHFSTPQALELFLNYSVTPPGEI
Kind of assay: co-IP; transfected HEK293T cells; lysis in 50 mM Tris-Cl pH 7.4, 0.5% NP-40, 150 mM NaCl, 1 mM EDTA; HA-conjugated beads or M2 (anti-Flag) beads 2-3 h; western blot; in some panels cells treated with EGF with or without SCH772984, or co-expressing MEK1^CA and ERK1. For orientation: Immunoblotting shows a protein as a band on a membrane.

Assay [3] addresses T3, endogenous Nanog (mouse (endogenous in E14)) (UniProt Q80Z64).
T3 sequence: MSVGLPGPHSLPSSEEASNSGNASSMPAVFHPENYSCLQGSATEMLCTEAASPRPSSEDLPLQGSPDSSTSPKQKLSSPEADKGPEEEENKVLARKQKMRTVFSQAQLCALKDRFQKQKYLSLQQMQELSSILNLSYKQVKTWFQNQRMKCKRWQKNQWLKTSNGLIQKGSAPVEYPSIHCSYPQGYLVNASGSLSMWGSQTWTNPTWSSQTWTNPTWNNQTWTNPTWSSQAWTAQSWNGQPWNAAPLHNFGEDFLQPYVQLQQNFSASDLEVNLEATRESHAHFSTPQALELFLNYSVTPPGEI
Kind of assay: co-IP; endogenous proteins from E14 mESC lysate; IP with anti-Nanog or anti-USP21 (Abgent) antibody; western blot; in one panel cells treated with mFGF4 (25 ng/ml) with or without PD0325901 (1 uM) for 12 h.

In assay [4] the target is T4, Flag-USP21-LV (mouse) (UniProt Q9QZL6).
T4 sequence: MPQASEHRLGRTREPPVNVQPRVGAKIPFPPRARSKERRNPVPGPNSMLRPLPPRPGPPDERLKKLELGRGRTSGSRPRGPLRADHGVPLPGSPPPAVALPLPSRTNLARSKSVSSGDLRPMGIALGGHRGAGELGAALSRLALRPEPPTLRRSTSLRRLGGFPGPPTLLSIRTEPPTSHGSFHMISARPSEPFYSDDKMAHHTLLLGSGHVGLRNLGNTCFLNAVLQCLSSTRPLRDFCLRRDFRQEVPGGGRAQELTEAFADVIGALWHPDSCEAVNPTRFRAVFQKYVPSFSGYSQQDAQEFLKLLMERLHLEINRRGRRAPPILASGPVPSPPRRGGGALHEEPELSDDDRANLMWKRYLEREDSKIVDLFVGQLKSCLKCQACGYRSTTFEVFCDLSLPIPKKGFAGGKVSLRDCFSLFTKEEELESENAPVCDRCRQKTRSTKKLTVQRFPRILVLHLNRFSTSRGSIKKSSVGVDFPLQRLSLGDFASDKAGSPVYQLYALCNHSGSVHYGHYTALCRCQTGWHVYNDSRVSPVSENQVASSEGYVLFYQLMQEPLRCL
Kind of assay: co-IP; transfected HEK293T cells; lysis in 50 mM Tris-Cl pH 7.4, 0.5% NP-40, 150 mM NaCl, 1 mM EDTA; HA-conjugated beads or M2 (anti-Flag) beads 2-3 h; western blot; in some panels cells treated with EGF with or without SCH772984, or co-expressing MEK1^CA and ERK1.

The target of assay [5] is T5, USP2 (UniProt O88623).
T5 sequence: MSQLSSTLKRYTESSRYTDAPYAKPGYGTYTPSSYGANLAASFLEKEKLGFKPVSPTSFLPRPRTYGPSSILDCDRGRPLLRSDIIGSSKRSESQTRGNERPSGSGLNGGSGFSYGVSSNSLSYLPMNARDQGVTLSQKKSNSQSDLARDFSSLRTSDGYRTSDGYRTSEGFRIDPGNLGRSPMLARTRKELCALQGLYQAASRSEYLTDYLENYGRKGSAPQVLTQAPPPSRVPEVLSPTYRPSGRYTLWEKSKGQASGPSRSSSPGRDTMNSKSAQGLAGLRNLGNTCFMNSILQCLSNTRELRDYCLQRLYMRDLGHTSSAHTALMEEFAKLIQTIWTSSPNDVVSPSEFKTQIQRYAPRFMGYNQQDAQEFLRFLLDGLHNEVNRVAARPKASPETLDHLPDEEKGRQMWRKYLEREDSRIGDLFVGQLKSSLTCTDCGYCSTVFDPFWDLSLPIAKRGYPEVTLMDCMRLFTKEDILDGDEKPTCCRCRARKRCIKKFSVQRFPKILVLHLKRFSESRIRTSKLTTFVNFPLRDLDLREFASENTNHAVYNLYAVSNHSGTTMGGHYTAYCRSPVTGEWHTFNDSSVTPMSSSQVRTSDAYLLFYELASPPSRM
The description is as above.

These are yes or no findings as the source states them, for the method shown. Binding seen in cells or lysates may run through a third protein. Some entries that bind do so weakly or less than the wild type. For some assays here: Where a sequence is shown, tags or fusion partners need not be part of it.

This note sets out measurements from article PMC5133637.

For “endogenous Sox2 (from UniProt P48432 1-319)”, the binding result in assay [1] is “no binding”.

B1: Flag-USP21-LV (enzyme, UniProt Q9QZL6 1-566)
chain: MPQASEHRLGRTREPPVNVQPRVGAKIPFPPRARSKERRNPVPGPNSMLRPLPPRPGPPDERLKKLELGRGRTSGSRPRGPLRADHGVPLPGSPPPAVALPLPSRTNLARSKSVSSGDLRPMGIALGGHRGAGELGAALSRLALRPEPPTLRRSTSLRRLGGFPGPPTLLSIRTEPPTSHGSFHMISARPSEPFYSDDKMAHHTLLLGSGHVGLRNLGNTCFLNAVLQCLSSTRPLRDFCLRRDFRQEVPGGGRAQELTEAFADVIGALWHPDSCEAVNPTRFRAVFQKYVPSFSGYSQQDAQEFLKLLMERLHLEINRRGRRAPPILASGPVPSPPRRGGGALHEEPELSDDDRANLMWKRYLEREDSKIVDLFVGQLKSCLKCQACGYRSTTFEVFCDLSLPIPKKGFAGGKVSLRDCFSLFTKEEELESENAPVCDRCRQKTRSTKKLTVQRFPRILVLHLNRFSTSRGSIKKSSVGVDFPLQRLSLGDFASDKAGSPVYQLYALCNHSGSVHYGHYTALCRCQTGWHVYNDSRVSPVSENQVASSEGYVLFYQLMQEPLRCL
As to B1, the binding result in assay [2] was “binds”.

B2: endogenous USP21 (enzyme, UniProt Q9QZL6 1-566)
chain: MPQASEHRLGRTREPPVNVQPRVGAKIPFPPRARSKERRNPVPGPNSMLRPLPPRPGPPDERLKKLELGRGRTSGSRPRGPLRADHGVPLPGSPPPAVALPLPSRTNLARSKSVSSGDLRPMGIALGGHRGAGELGAALSRLALRPEPPTLRRSTSLRRLGGFPGPPTLLSIRTEPPTSHGSFHMISARPSEPFYSDDKMAHHTLLLGSGHVGLRNLGNTCFLNAVLQCLSSTRPLRDFCLRRDFRQEVPGGGRAQELTEAFADVIGALWHPDSCEAVNPTRFRAVFQKYVPSFSGYSQQDAQEFLKLLMERLHLEINRRGRRAPPILASGPVPSPPRRGGGALHEEPELSDDDRANLMWKRYLEREDSKIVDLFVGQLKSCLKCQACGYRSTTFEVFCDLSLPIPKKGFAGGKVSLRDCFSLFTKEEELESENAPVCDRCRQKTRSTKKLTVQRFPRILVLHLNRFSTSRGSIKKSSVGVDFPLQRLSLGDFASDKAGSPVYQLYALCNHSGSVHYGHYTALCRCQTGWHVYNDSRVSPVSENQVASSEGYVLFYQLMQEPLRCL
As for B2, the binding entry in assay [3] was “binds”.

B3: HA-Nanog (protein, UniProt Q80Z64 1-305)
chain: MSVGLPGPHSLPSSEEASNSGNASSMPAVFHPENYSCLQGSATEMLCTEAASPRPSSEDLPLQGSPDSSTSPKQKLSSPEADKGPEEEENKVLARKQKMRTVFSQAQLCALKDRFQKQKYLSLQQMQELSSILNLSYKQVKTWFQNQRMKCKRWQKNQWLKTSNGLIQKGSAPVEYPSIHCSYPQGYLVNASGSLSMWGSQTWTNPTWSSQTWTNPTWNNQTWTNPTWSSQAWTAQSWNGQPWNAAPLHNFGEDFLQPYVQLQQNFSASDLEVNLEATRESHAHFSTPQALELFLNYSVTPPGEI
Regarding B3, the binding entry in assay [4] is recorded as “binds”; in assay [5], “binds weakly”.
